Experimental data taken from publication PMC12040169 (PLOS Biology, 2025).
This is one part of the list.

System: T1, CTL2-GFP (C. trachomatis L2/434/Bu, GFP-expressing)
T1 construct: L2/434/Bu, GFP-expressing
Parameters: species or system HeLa; Intracellular C. trachomatis growth in HeLa cells, bulk GFP fluorescence relative to DMSO
Conditions: bulk GFP, single well; 28.5 h, 10 µM; inhibitor

Point of comparison: Cc1cc(NC(=O)C2CCN(C(=O)c3cnc(N)c(Cl)c3)CC2)no1 [CBK305545], “% of control remaining” value 109.032%. Against it:
- O=C(CCCn1cccn1)N1CCOC(c2ccc(Cl)cc2)C1 (stereo not drawn) [CBK304643] — higher, 125.229%
- C=CCNC(=O)N1CCC2(CC1)OCCc1c2n(C)c2ccccc12 [CBK047354] — higher, 126.142%
- O=C(c1cccs1)N1Cc2ccccc2OC2(CCOCC2)C1 [CBK284942] — higher, 113.471%
- Cc1cc2ncc3c(n2n1)CC1CCC3N1Cc1ccc(C)o1 (stereo not drawn) [CBK284412] — lower, 102.917%
- CCS(=O)(=O)c1ccc(O)c(NS(=O)(=O)c2cc(C(=O)O)ccc2Cl)c1 [CBK297531] — higher, 129.574%
- COCCn1c(=O)[nH]c2ncc(-c3ccc4c(c3)OCO4)nc21 [CBK064164] — lower, 99.5322%
- CN(CCO)S(=O)(=O)c1ccccc1[N+](=O)[O-] [CBK261457] — lower, 83.8826%
- CC(Sc1nc2cc(Cl)ccc2c(=O)n1CC1CCCO1)C(N)=O (stereo not drawn) [CBK305935] — lower, 92.7425%
- CCOc1ccc(NC(=O)C(C)O)c(NC(=O)c2ccccc2Cl)c1 (stereo not drawn) [CBK269678] — lower, 103.545%
- CC1CN(C2CCN(S(=O)(=O)c3cccs3)CC2)C(=O)O1 (stereo not drawn) [CBK044072] — lower, 93.3954%
- COc1cc2nnnn2c(-c2ccccc2)n1 [CBK026189] — higher, 141.446%
- CC(c1ccncn1)N(C)C(=O)NCc1cccc(CN(C)C)c1 (stereo not drawn) [CBK307667] — higher, 119.989%
- FC(F)(F)c1cccc(-c2nccnc2NCCCN2CCOCC2)c1 [CBK037288] — higher, 166.7%
- CNS(=O)(=O)c1cc(C(=O)NCc2ccccc2)ccc1OC [CBK270277] — higher, 109.066%
- O=S(=O)(c1ccc(-c2ccccc2)cc1)N1CCCN(Cc2cccnc2N2CCOCC2)CC1 [CBK063127] — lower, 82.8625%
- CSc1nnc(-c2ccco2)n1-c1cccc(Cl)c1C [CBK067723] — lower, 76.1087%
- O=C(O)Cc1ccc(NC(=S)Nc2cccc(Cl)c2Cl)cc1 [CBK267064] — higher, 129.55%
- CC(CN(C)C(=O)c1cn[nH]c1C1CCNC1)Oc1ccc(Cl)c(Cl)c1 (stereo not drawn) [CBK304786] — higher, 118.774%
- CC(C)n1c(=O)n(CC(=O)NCc2cccs2)c2cccnc21 [CBK283699] — higher, 139.074%
- COc1cc(C(=O)N2CCC3(CC2)CC(=O)c2cc(-c4cccc(C)c4)ccc2O3)cc(OC)c1C [CBK170341] — lower, 106.387%
- Cc1[nH]c2ccc(Cl)cc2c1CC(=O)N(C)CCN(C)C [CBK282700] — higher, 127.807%
- Cn1c(=O)n(C)c2cc(CNC(=O)CC3COCCN3)ccc21 (stereo not drawn) [CBK307252] — higher, 120.89%
- CN1CCC(=NNC(=O)C(=O)NCc2ccco2)CC1 [CBK262341] — higher, 119.76%
- Cc1scc(C(=O)NCc2ccccn2)c1-c1ccccc1 [CBK268107] — higher, 112.101%
- Cc1ccc2c(c1)C(=O)CC1(CCN(C(=O)OC(C)(C)C)CC1)O2 [CBK283599] — lower, 93.1026%
- O=C(O)C1=NN(c2ccccc2)C(=O)CC1 [CBK270176] — higher, 153.874%
- Cc1ccc(-c2nccnc2OCc2ccccn2)c(C)c1 [CBK106979] — lower, 100%
- COc1nc(Cl)nc(Oc2ccc(F)cc2)n1 [CBK011279] — lower, 99.4055%
- O=C(CN1C(=O)c2ccccc2C1=O)Nc1cc(C(=O)O)cc(C(=O)O)c1 [CBK262024] — lower, 97.0704%
- CCCC/C=C/c1cncc(N(C)CCN(C)C)n1 [CBK065374] — higher, 199.751%
- O=C1NC2(CCCCCC2)C(=O)N1Cc1cnn(-c2ccccc2)n1 [CBK305571] — higher, 116.898%
- COCCN1CCN(C(=O)[C@@H]2Cc3c[nH]c4cccc(c34)[C@H](CC(C)C)N2)CC1 [CBK289419] — higher, 136.391%
- NS(=O)(=O)c1ccc(CCNC2CC(=O)N(Cc3cccs3)C2=O)cc1 (stereo not drawn) [CBK266579] — higher, 188.787%
- O=c1c([N+](=O)[O-])c(O)c2ccccc2n1-c1ccccc1 [CBK115316] — lower, 107.491%
- O=C(C1=C(O)C(=O)N(CCCn2ccnc2)C1c1ccncc1)c1ccc(F)cc1 (stereo not drawn) [CBK264601] — higher, 123.045%
- CC(=O)c1ccc(NC(=O)C2C3C=CC(C3=C(c3ccccc3)c3ccccc3)C2C(=O)O)cc1 (stereo not drawn) [CBK265696] — higher, 126.286%
- COc1nccnc1N1CCN(Cc2ccc(Cl)c(Cl)c2)CC1 [CBK084209] — higher, 117.234%
- O=C(O)CCC(=O)Nc1cc(C(F)(F)F)ccc1N1CCCC1 [CBK057434] — lower, 104.393%
- Cc1nn2c(CN(C(=O)c3ccccc3)c3ccccc3)nnc2c2ccccc12 [CBK268084] — lower, 89.5253%
- O=C(NCCCN1CCOCC1)Nc1cccc(Cl)c1Cl [CBK016286] — higher, 153.736%
- O=C(COc1ccccc1)Nc1cnc(-c2ccc(F)cc2)c(-c2ccsc2)n1 [CBK036958] — higher, 109.128%
- CN1CCN(S(=O)(=O)c2ccc3c4c(cccc24)C(=O)N3)CC1 [CBK266647] — higher, 138.598%
- Cc1nn(CC(=O)N2CCC(C)CC2)c(=O)c2cc3ccsc3n12 [CBK284081] — higher, 136.973%
- CCc1nccn1C(C)C(=O)Nc1ccc2ncn(C)c2c1 (stereo not drawn) [CBK281745] — higher, 116.463%
- COc1ccc(OC)c(S(=O)(=O)N2CCCC(C(=O)O)C2)c1 (stereo not drawn) [CBK269225] — higher, 133.391%
- Cc1ccc2[nH]c(SCC(=O)NC3CCCC3)nc2c1 [CBK057983] — lower, 93.0649%
- O=C(CN1CCC(c2ccccc2F)CC1)Nc1nccs1 [CBK283579] — lower, 98.5572%
- O=C1c2ccccc2C(=O)N1CN(CCc1ccc(Cl)cc1)CN1C(=O)c2ccccc2C1=O [CBK225934] — lower, 100%
- Nc1nc2c([C@H]3C[C@@H](O)[C@@H](CO)O3)c[nH]c2c(=O)[nH]1 [CBK201194] — higher, 147.489%
- c1ccc2c(c1)CCN2c1ncnc2[nH]cnc12 [CBK291104] — higher, 150.596%
- CN(C)c1ccc(-c2nc(N(C)C)n(C)n2)cn1 [CBK306858] — higher, 140.081%
- Cc1ccccc1-n1sc(=O)n(Cc2ccc(F)cc2)c1=O [CBK113605] — lower, 83.6272%
- CCCCCNC(=O)N1CCN(CC(=O)OCC)CC1 [CBK044786] — lower, 103.595%
- Cn1c(NCc2ccccn2)nc2ccccc21 [CBK268544] — higher, 118.918%
- C=C(C)Cn1c(=O)c2c(nc3[nH]c(C)c(C)n32)n(C)c1=O [CBK288184] — higher, 116.602%
- O=C(N/N=C/C=N/NC(=O)c1ccccc1O)c1ccccc1O [CBK261430] — lower, 100%
- CCC(CC)n1nc(C(=O)NC2(C#N)CCSC2)cc1C (stereo not drawn) [CBK305111] — lower, 102.95%
- O=C(c1sc2cc(Cl)ccc2c1Cl)N1CCN(Cc2ccc3c(c2)OCO3)CC1 [CBK074431] — lower, 86.6502%
- N#Cc1ccc(-c2cnc(N)c(-c3ccccc3Cl)n2)cc1 [CBK113660] — higher, 126.019%
- Cc1cc(S(=O)(=O)NCCCn2ccnc2)c(C)cc1Br [CBK269525] — lower, 97.7844%
- Cc1ccc([N+](=O)[O-])cc1S(=O)(=O)NCC(=O)O [CBK266234] — higher, 178.775%
- Cc1ccc(Cl)c(OC(C)C(=O)N2CCC(CC(N)=O)CC2)c1 (stereo not drawn) [CBK305762] — higher, 129.718%
- Clc1ccc(-c2ccc(N3CCN(CCN4CCCC4)CC3)nc2)cc1 [CBK037623] — higher, 166.007%
- CN(C)CC(O)CN1C(=O)NC(C)(C)C1=O (stereo not drawn) [CBK027078] — higher, 121.419%
- OCC1CCCN1c1nccnc1-c1ccoc1 (stereo not drawn) [CBK089057] — higher, 180.875%
- O=C(O)CC(C(=O)Nc1ccccc1)N1CCOCC1 (stereo not drawn) [CBK287182] — lower, 88.4854%
- O=C1Nc2ccccc2C12CC(c1ccccc1Cl)=NN2 (stereo not drawn) [CBK288004] — lower, 88.276%
- O=C(CSc1nnc(-c2ccncc2)n1-c1ccccc1)N/N=C/c1coc2ccccc2c1=O [CBK262866] — higher, 118.57%
- Cc1nc2cc(C(=O)NCC(C)(C)N3CCCCC3)ccc2n1C [CBK281862] — higher, 156.424%
- CCn1nc(C)cc1C(=O)N1Cc2cnn(Cc3ccc(F)cc3)c2C1 [CBK306574] — higher, 116.819%
- O=C1CCc2cc(S(=O)(=O)NC(c3ccccc3)c3ccccc3)cc3c2N1CCC3 [CBK294418] — higher, 111.074%
- COCC1CCN(c2c(F)cc(C#N)cc2F)CC1 [CBK306244] — lower, 106.101%
- O=C(O)CNC(=O)CN1C(=O)c2cc(Cl)c(Cl)cc2C1=O [CBK287156] — higher, 124.686%
- O=C(O)c1cccc(-c2nc(-c3ccc(S(=O)(=O)N4CCOCC4)cc3)cs2)c1 [CBK297730] — higher, 124.908%
- CCc1cc(C(=O)OC)c(NC(=O)C2C3C=CC(C3)C2C(=O)O)s1 (stereo not drawn) [CBK270315] — higher, 112.217%
- CC(C)NC(=O)c1sc2ccccc2c1C1CCN(C(=O)COc2ccccc2)C1 (stereo not drawn) [CBK285875] — higher, 116.463%
- Cc1cc(C)n2nc(C(=O)N3CCCC34CC=CC4)cc2n1 [CBK282815] — higher, 137.766%
- OCCc1ccc(Oc2ncc(C(F)(F)F)cc2Cl)cc1 [CBK161643] — higher, 131.643%
- CC(Cc1cccs1)NC(=O)C(C)Cn1cccn1 (stereo not drawn) [CBK283250] — higher, 129.952%
- COC(=O)c1cc(OC)c(OC)cc1NC(=O)C1CCC1C(=O)O (stereo not drawn) [CBK057084] — higher, 122.569%
